{"source": "patent US20060173022A1", "about": "“Heterocyclic amides, method for the production thereof, substances containing said heterocyclic amides, and use thereof as pesticides” (Bayer CropScience GmbH, priority 2003, published 2006)", "key": {"[1]": {"system": "black bean aphids (Aphis fabae)", "assay": "Aphis fabae root-systemic test on field bean (Vicia faba): solution pipetted into the bottle", "type": "in vivo", "conditions": "300 ppm active compound; 4 ml solution pipetted into bottle; effect determined after 3 and 6 days"}, "[2]": {"system": "black bean aphids (Aphis fabae)", "assay": "Aphis fabae dip test on field bean (Vicia faba): plants and aphids dipped in solution of compound", "type": "in vivo", "conditions": "300 ppm active compound; plants and aphids dipped 5 seconds; effect determined after 3 and 6 days"}}, "note": "Some results were stated once for a whole list of compounds, not compound by compound. Some compounds share one range, which may span the group rather than tell each member."}
{"smiles": "CC[S+]([O-])CCCNC(=O)c1cnccc1C(F)(F)F", "note": "(stereo not shown) [Example 456]", "values": [{"measurement": "mortality among the aphids, owing to root-systemic action", "setting": "[1]", "result": "90-100%"}, {"measurement": "mortality among the aphids", "setting": "[2]", "result": "90-100%"}]}
{"smiles": "CC(C)[S+]([O-])CCCNC(=O)c1cnccc1C(F)(F)F", "note": "(stereo not shown) [Example 458]", "values": [{"measurement": "mortality among the aphids, owing to root-systemic action", "setting": "[1]", "result": "90-100%"}, {"measurement": "mortality among the aphids", "setting": "[2]", "result": "90-100%"}]}
{"smiles": "CC(C)(C)[S+]([O-])CCCNC(=O)c1cnccc1C(F)(F)F", "note": "(stereo not shown) [Example 462]", "values": [{"measurement": "mortality among the aphids, owing to root-systemic action", "setting": "[1]", "result": "90-100%"}, {"measurement": "mortality among the aphids", "setting": "[2]", "result": "90-100%"}]}
{"smiles": "O=C(NCCC[S+]([O-])CC(F)(F)F)c1cnccc1C(F)(F)F", "note": "(stereo not shown) [Example 491]", "values": [{"measurement": "mortality among the aphids, owing to root-systemic action", "setting": "[1]", "result": "90-100%"}, {"measurement": "mortality among the aphids", "setting": "[2]", "result": "90-100%"}]}
{"smiles": "Cc1ccc([S+]([O-])CCCNC(=O)c2cnccc2C(F)(F)F)cc1", "note": "(stereo not shown) [Example 522]", "values": [{"measurement": "mortality among the aphids, owing to root-systemic action", "setting": "[1]", "result": "90-100%"}, {"measurement": "mortality among the aphids", "setting": "[2]", "result": "90-100%"}]}
{"smiles": "O=C(NCCCS(=O)(=O)CC(F)(F)F)c1cnccc1C(F)(F)F", "note": "[Example 596]", "values": [{"measurement": "mortality among the aphids, owing to root-systemic action", "setting": "[1]", "result": "90-100%"}, {"measurement": "mortality among the aphids", "setting": "[2]", "result": "90-100%"}]}
{"smiles": "COc1ccc(S(=O)(=O)CCCNC(=O)c2cnccc2C(F)(F)F)cc1", "note": "[Example 632]", "values": [{"measurement": "mortality among the aphids, owing to root-systemic action", "setting": "[1]", "result": "90-100%"}, {"measurement": "mortality among the aphids", "setting": "[2]", "result": "90-100%"}]}
{"smiles": "O=C(NCCCS(=O)(=O)c1ccc(F)cc1)c1cnccc1C(F)(F)F", "note": "[Example 633]", "values": [{"measurement": "mortality among the aphids, owing to root-systemic action", "setting": "[1]", "result": "90-100%"}, {"measurement": "mortality among the aphids", "setting": "[2]", "result": "90-100%"}]}
{"smiles": "CC1OCCC1[S+]([O-])CCCNC(=O)c1cnccc1C(F)(F)F", "note": "(stereo not shown) [Example 682]", "values": [{"measurement": "mortality among the aphids, owing to root-systemic action", "setting": "[1]", "result": "90-100%"}, {"measurement": "mortality among the aphids", "setting": "[2]", "result": "90-100%"}]}
{"smiles": "CCOC(=O)NCCNC(=O)c1cnccc1C(F)(F)F", "note": "[Example 712]", "values": [{"measurement": "mortality among the aphids, owing to root-systemic action", "setting": "[1]", "result": "90-100%"}, {"measurement": "mortality among the aphids", "setting": "[2]", "result": "90-100%"}]}
{"smiles": "CC(C)(C)OC(=O)NCCNC(=O)c1cnccc1C(F)(F)F", "note": "[Example 722]", "values": [{"measurement": "mortality among the aphids, owing to root-systemic action", "setting": "[1]", "result": "90-100%"}, {"measurement": "mortality among the aphids", "setting": "[2]", "result": "90-100%"}]}
{"smiles": "CN(CCNC(=O)c1cnccc1C(F)(F)F)C(=O)OC(C)(C)C", "note": "[Example 723]", "values": [{"measurement": "mortality among the aphids, owing to root-systemic action", "setting": "[1]", "result": "90-100%"}, {"measurement": "mortality among the aphids", "setting": "[2]", "result": "90-100%"}]}
{"smiles": "O=C(NCCOCCF)c1cnccc1C(F)(F)F", "note": "[Example 864]", "values": [{"measurement": "mortality among the aphids, owing to root-systemic action", "setting": "[1]", "result": "90-100%"}, {"measurement": "mortality among the aphids", "setting": "[2]", "result": "90-100%"}]}
{"smiles": "CN(CCOCCF)C(=O)c1cnccc1C(F)(F)F", "note": "[Example 865]", "values": [{"measurement": "mortality among the aphids, owing to root-systemic action", "setting": "[1]", "result": "90-100%"}, {"measurement": "mortality among the aphids", "setting": "[2]", "result": "90-100%"}]}
{"smiles": "CCOCCOCCOCCCNC(=O)c1cnccc1C(F)(F)F", "note": "[Example 894]", "values": [{"measurement": "mortality among the aphids, owing to root-systemic action", "setting": "[1]", "result": "90-100%"}, {"measurement": "mortality among the aphids", "setting": "[2]", "result": "90-100%"}]}
{"smiles": "CN(CCOCC1CC1)C(=O)c1cnccc1C(F)(F)F", "note": "[Example 898]", "values": [{"measurement": "mortality among the aphids, owing to root-systemic action", "setting": "[1]", "result": "90-100%"}, {"measurement": "mortality among the aphids", "setting": "[2]", "result": "90-100%"}]}
{"smiles": "CC(CON=Cc1ccccc1)NC(=O)c1cnccc1C(F)(F)F", "note": "(stereo not shown) [Example 985]", "values": [{"measurement": "mortality among the aphids, owing to root-systemic action", "setting": "[1]", "result": "90-100%"}, {"measurement": "mortality among the aphids", "setting": "[2]", "result": "90-100%"}]}
{"smiles": "CCC(CON=Cc1ccccc1)NC(=O)c1cnccc1C(F)(F)F", "note": "(stereo not shown) [Example 986]", "values": [{"measurement": "mortality among the aphids, owing to root-systemic action", "setting": "[1]", "result": "90-100%"}, {"measurement": "mortality among the aphids", "setting": "[2]", "result": "90-100%"}]}
{"smiles": "CC(=NOCC(C)NC(=O)c1cnccc1C(F)(F)F)c1ccccc1", "note": "(stereo not shown) [Example 987]", "values": [{"measurement": "mortality among the aphids, owing to root-systemic action", "setting": "[1]", "result": "90-100%"}, {"measurement": "mortality among the aphids", "setting": "[2]", "result": "90-100%"}]}
{"smiles": "CCC(CON=Cc1ccc(F)cc1)NC(=O)c1cnccc1C(F)(F)F", "note": "(stereo not shown) [Example 989]", "values": [{"measurement": "mortality among the aphids, owing to root-systemic action", "setting": "[1]", "result": "90-100%"}, {"measurement": "mortality among the aphids", "setting": "[2]", "result": "90-100%"}]}
{"smiles": "CC(CON=Cc1ccc(F)cc1)NC(=O)c1cnccc1C(F)(F)F", "note": "(stereo not shown) [Example 990]", "values": [{"measurement": "mortality among the aphids, owing to root-systemic action", "setting": "[1]", "result": "90-100%"}, {"measurement": "mortality among the aphids", "setting": "[2]", "result": "90-100%"}]}
{"smiles": "O=C(NCCC=NO)c1cnccc1C(F)(F)F", "note": "[Example 1015]", "values": [{"measurement": "mortality among the aphids, owing to root-systemic action", "setting": "[1]", "result": "90-100%"}, {"measurement": "mortality among the aphids", "setting": "[2]", "result": "90-100%"}]}
{"smiles": "CCON=CCCNC(=O)c1cnccc1C(F)(F)F", "note": "[Example 1080]", "values": [{"measurement": "mortality among the aphids, owing to root-systemic action", "setting": "[1]", "result": "90-100%"}, {"measurement": "mortality among the aphids", "setting": "[2]", "result": "90-100%"}]}
{"smiles": "CC(C)(C)ON=CCCNC(=O)c1cnccc1C(F)(F)F", "note": "[Example 1086]", "values": [{"measurement": "mortality among the aphids, owing to root-systemic action", "setting": "[1]", "result": "90-100%"}, {"measurement": "mortality among the aphids", "setting": "[2]", "result": "90-100%"}]}
{"smiles": "O=C(NCCC=NOCc1ccccc1)c1cnccc1C(F)(F)F", "note": "[Example 1087]", "values": [{"measurement": "mortality among the aphids, owing to root-systemic action", "setting": "[1]", "result": "90-100%"}, {"measurement": "mortality among the aphids", "setting": "[2]", "result": "90-100%"}]}
{"smiles": "C=CCON=CCCNC(=O)c1cnccc1C(F)(F)F", "note": "[Example 1096]", "values": [{"measurement": "mortality among the aphids, owing to root-systemic action", "setting": "[1]", "result": "90-100%"}, {"measurement": "mortality among the aphids", "setting": "[2]", "result": "90-100%"}]}
